{"source": "paper PMC10281262", "binders": {"B1": {"name": "SEPT2–GFP (protein, UniProt Q15019 1-361)", "chain": "MSKQQPTQFINPETPGYVGFANLPNQVHRKSVKKGFEFTLMVVGESGLGKSTLINSLFLTDLYPERVIPGAAEKIERTVQIEASTVEIEERGVKLRLTVVDTPGYGDAINCRDCFKTIISYIDEQFERYLHDESGLNRRHIIDNRVHCCFYFISPFGHGLKPLDVAFMKAIHNKVNIVPVIAKADTLTLKERERLKKRILDEIEEHNIKIYHLPDAESDEDEDFKEQTRLLKASIPFSVVGSNQLIEAKGKKVRGRLYPWGVVEVENPEHNDFLKLRTMLITHMQDLQEVTQDLHYENFRSERLKRGGRKVENEDMNKDQILLEKEAELRRMQEMIARMQAQMQMQMQGGDGDGGALGHHV"}, "B2": {"name": "SEPT6 (protein, UniProt Q14141 1-434)", "chain": "MAATDIARQVGEGCRTVPLAGHVGFDSLPDQLVNKSVSQGFCFNILCVGETGLGKSTLMDTLFNTKFEGEPATHTQPGVQLQSNTYDLQESNVRLKLTIVSTVGFGDQINKEDSYKPIVEFIDAQFEAYLQEELKIRRVLHTYHDSRIHVCLYFIAPTGHSLKSLDLVTMKKLDSKVNIIPIIAKADAISKSELTKFKIKITSELVSNGVQIYQFPTDDESVAEINGTMNAHLPFAVIGSTEELKIGNKMMRARQYPWGTVQVENEAHCDFVKLREMLIRVNMEDLREQTHTRHYELYRRCKLEEMGFKDTDPDSKPFSLQETYEAKRNEFLGELQKKEEEMRQMFVQRVKEKEAELKEAEKELHEKFDRLKKLHQDEKKKLEDKKKSLDDEVNAFKQRKTAAELLQSQGSQAGGSQTLKRDKEKKNNPWLCTE"}, "B3": {"name": "SEPT7 (protein, UniProt Q16181 1-437)", "chain": "MSVSARSAAAEERSVNSSTMVAQQKNLEGYVGFANLPNQVYRKSVKRGFEFTLMVVGESGLGKSTLINSLFLTDLYSPEYPGPSHRIKKTVQVEQSKVLIKEGGVQLLLTIVDTPGFGDAVDNSNCWQPVIDYIDSKFEDYLNAESRVNRRQMPDNRVQCCLYFIAPSGHGLKPLDIEFMKRLHEKVNIIPLIAKADTLTPEECQQFKKQIMKEIQEHKIKIYEFPETDDEEENKLVKKIKDRLPLAVVGSNTIIEVNGKRVRGRQYPWGVAEVENGEHCDFTILRNMLIRTHMQDLKDVTNNVHYENYRSRKLAAVTYNGVDNNKNKGQLTKSPLAQMEEERREHVAKMKKMEMEMEQVFEMKVKEKVQKLKDSEAELQRRHEQMKKNLEAQHKELEEKRRQFEDEKANWEAQQRILEQQNSSRTLEKNKKKGKIF"}, "B4": {"name": "SEPT9_i1 (SEPTIN9 isoform 1), Q9UHD8 1-586 (protein)", "chain": "MKKSYSGGTRTSSGRLRRLGDSSGPALKRSFEVEEVETPNSTPPRRVQTPLLRATVASSTQKFQDLGVKNSEPSARHVDSLSQRSPKASLRRVELSGPKAAEPVSRRTELSIDISSKQVENAGAIGPSRFGLKRAEVLGHKTPEPAPRRTEITIVKPQESAHRRMEPPASKVPEVPTAPATDAAPKRVEIQMPKPAEAPTAPSPAQTLENSEPAPVSQLQSRLEPKPQPPVAEATPRSQEATEAAPSCVGDMADTPRDAGLKQAPASRNEKAPVDFGYVGIDSILEQMRRKAMKQGFEFNIMVVGQSGLGKSTLINTLFKSKISRKSVQPTSEERIPKTIEIKSITHDIEEKGVRMKLTVIDTPGFGDHINNENCWQPIMKFINDQYEKYLQEEVNINRKKRIPDTRVHCCLYFIPATGHSLRPLDIEFMKRLSKVVNIVPVIAKADTLTLEERVHFKQRITADLLSNGIDVYPQKEFDEDSEDRLVNEKFREMIPFAVVGSDHEYQVNGKRILGRKTKWGTIEVENTTHCEFAYLRDLLIRTHMQNIKDITSSIHFEAYRVKRLNEGSSAMANGMEEKEPEAPEM"}}, "assay_in_all_cases": "co-purification (affinity and ion exchange chromatography); four septins co-expressed in E. coli; purified together by nickel-histidine and streptavidin-biotin affinities and ion exchange chromatography; kept in 300 mM KCl, 50 mM Tris, pH 8; SDS-PAGE in Fig. S7A", "key": {"SEPT6 (human)": {"biological_target": "T1, SEPT6 (human) (UniProt Q14141)", "T1 sequence": "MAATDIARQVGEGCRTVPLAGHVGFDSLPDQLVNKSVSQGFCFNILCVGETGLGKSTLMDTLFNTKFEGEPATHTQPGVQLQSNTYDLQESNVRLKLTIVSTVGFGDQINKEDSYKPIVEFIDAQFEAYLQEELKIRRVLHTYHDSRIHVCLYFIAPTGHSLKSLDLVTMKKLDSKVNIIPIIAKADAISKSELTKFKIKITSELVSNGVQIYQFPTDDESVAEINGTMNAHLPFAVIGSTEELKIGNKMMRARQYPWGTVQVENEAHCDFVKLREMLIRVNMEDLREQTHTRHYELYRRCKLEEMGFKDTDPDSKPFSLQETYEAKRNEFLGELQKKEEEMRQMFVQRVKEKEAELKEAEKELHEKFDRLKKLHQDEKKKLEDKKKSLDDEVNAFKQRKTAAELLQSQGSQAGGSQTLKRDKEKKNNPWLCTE"}, "SEPT7 (human)": {"biological_target": "T2, SEPT7 (human) (UniProt Q16181)", "T2 sequence": "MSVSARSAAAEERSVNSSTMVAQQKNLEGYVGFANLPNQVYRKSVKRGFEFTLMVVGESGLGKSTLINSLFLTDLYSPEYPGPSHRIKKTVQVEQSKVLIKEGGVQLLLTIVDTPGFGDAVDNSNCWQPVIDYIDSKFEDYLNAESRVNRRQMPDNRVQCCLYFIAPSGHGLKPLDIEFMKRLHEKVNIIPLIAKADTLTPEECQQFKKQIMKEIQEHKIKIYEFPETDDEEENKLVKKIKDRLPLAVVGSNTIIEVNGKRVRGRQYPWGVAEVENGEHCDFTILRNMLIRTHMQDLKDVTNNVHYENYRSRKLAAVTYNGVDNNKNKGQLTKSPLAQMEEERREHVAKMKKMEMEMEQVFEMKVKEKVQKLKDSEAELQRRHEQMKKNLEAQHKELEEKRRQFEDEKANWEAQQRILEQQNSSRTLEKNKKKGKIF"}, "[1]": {"biological_target": "T3, SEPT9_i1 (SEPTIN9 isoform 1) (human) (UniProt Q9UHD8)", "T3 sequence": "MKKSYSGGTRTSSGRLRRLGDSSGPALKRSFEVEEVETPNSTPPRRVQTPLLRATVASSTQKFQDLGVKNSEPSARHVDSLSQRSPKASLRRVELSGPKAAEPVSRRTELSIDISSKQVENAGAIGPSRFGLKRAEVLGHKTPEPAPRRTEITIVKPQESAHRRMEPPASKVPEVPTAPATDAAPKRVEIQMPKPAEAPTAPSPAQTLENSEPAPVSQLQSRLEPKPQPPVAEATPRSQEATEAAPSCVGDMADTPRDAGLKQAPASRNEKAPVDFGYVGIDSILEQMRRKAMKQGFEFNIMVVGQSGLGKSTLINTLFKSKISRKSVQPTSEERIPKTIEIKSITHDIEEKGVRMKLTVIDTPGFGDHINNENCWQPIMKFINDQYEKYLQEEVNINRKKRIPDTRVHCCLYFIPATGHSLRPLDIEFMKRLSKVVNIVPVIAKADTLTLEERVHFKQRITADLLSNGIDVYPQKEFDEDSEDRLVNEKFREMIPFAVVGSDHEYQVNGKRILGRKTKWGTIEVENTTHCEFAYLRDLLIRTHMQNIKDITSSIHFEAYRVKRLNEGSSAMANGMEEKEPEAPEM"}, "[2]": {"biological_target": "T4, SEPT9_i1 (SEPTIN9 isoform 1) (human), Q9UHD8", "T4 chain": "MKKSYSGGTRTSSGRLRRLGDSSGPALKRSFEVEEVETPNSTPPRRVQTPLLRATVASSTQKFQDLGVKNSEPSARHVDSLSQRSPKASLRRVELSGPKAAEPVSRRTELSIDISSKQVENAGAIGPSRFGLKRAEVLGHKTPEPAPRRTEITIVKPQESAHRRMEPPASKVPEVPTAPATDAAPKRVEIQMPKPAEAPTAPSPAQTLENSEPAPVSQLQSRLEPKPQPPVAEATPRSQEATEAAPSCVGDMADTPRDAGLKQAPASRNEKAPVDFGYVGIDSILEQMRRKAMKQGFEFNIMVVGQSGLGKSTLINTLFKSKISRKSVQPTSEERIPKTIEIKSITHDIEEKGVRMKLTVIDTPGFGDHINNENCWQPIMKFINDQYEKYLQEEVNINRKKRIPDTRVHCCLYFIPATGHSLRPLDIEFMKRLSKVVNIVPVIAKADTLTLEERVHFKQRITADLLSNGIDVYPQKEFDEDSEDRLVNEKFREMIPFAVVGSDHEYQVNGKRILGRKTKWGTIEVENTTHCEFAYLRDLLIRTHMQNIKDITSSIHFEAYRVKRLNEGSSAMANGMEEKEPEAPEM", "details": "remark: other sources report otherwise"}}, "note": "These are yes or no findings as the source states them, for the method shown. Some binding calls cover weakened binding; strength is not graded here. For some of these results: Tags and fused reporters may be left off the sequences shown.", "data": [{"binder": "B1", "values": [{"measurement": "binding", "setting": "SEPT6 (human)", "result": "binds"}]}, {"binder": "B2", "values": [{"measurement": "binding", "setting": "SEPT7 (human)", "result": "binds"}]}, {"binder": "B3", "values": [{"measurement": "binding", "setting": "[1]", "result": "binds"}]}, {"binder": "B4", "values": [{"measurement": "binding", "setting": "[2]", "result": "binds"}]}]}
